Data from PMC5430744 (Scientific Reports, 2017).

Sequences of proteins named here, by UniProt entry; tags and fusion partners are left off. A change or cut given only in a name is not applied to a line headed by its entry.
UniProt D1AWD9: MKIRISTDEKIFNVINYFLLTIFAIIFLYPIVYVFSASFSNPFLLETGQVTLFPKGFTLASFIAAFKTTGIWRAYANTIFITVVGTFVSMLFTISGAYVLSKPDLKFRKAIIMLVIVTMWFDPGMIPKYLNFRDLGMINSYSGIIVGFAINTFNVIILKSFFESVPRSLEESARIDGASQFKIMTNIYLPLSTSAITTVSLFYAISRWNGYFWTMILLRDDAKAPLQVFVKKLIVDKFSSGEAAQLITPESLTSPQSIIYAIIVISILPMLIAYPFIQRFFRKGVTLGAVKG
UniProt D1AWD7: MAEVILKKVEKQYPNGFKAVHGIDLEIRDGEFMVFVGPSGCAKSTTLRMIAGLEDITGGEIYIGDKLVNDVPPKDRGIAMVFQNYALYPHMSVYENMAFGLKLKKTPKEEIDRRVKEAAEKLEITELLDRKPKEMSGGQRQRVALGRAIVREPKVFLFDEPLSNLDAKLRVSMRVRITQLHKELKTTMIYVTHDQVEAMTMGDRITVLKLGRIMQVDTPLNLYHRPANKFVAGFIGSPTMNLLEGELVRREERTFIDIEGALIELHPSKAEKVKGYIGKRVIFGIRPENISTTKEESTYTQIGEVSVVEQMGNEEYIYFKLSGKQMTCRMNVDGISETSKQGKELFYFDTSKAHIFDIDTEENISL
UniProt D1AWD8: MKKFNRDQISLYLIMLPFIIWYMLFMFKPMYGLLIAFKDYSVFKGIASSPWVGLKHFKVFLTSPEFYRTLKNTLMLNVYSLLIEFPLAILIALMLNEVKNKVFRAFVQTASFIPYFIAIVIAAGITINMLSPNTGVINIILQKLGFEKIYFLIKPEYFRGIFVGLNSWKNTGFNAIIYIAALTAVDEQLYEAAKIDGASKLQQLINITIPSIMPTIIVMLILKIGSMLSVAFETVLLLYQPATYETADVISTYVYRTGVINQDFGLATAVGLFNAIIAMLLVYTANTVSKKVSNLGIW

Biological target: Smon0122(10xHis), putative aldouronate transport system (permease protein) (Streptobacillus moniliformis) (UniProt D1AWD9)
Test: co-purification on Ni-NTA + SEC; operon smon0120-0121-0122 co-expressed in E. coli; membranes solubilised with DDM; Ni-NTA by the 10xHis on Smon0122, then HiLoad 16/60 Superdex 200 pg; three bands on SDS-PAGE; eluted as a tetramer (theoretical about 150 kDa, eluted slightly over 158 kDa, detergent present)

Which binding does the source give for “Smon0120, multiple sugar transport system (ATP-binding protein) (from UniProt D1AWD7)” here?
Its binding is “binds”.

For “Smon0121, putative aldouronate transport system (permease protein) (from UniProt D1AWD8)”, which binding is on record?
The binding was “binds”.

These are yes or no findings as the source states them, for the method shown. In cells and extracts the contact can be indirect. Binding can be weak; no strength is given.
